Laboratory results reported in the supplement of paper PMC7661543.
± gives the standard deviation of the averaged measurements. Differences between knockout arms are mostly noise.

Experiments:
HCC-38 = assay: relative cell number vs DMSO control (72 h) (% of DMSO); higher = less growth inhibition (more cells)
Protocol: (§1)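 QMAP-Seq: a pool of 5 breast cancer cell lines (ZR-75-1, SKBR3, HCC-38, MDA-MB-231, BT-20), each carrying 12 doxycycline-inducible Cas9 sgRNA perturbations (11 knockouts plus non-targeting sgNT), was treated with compounds for 72 h at four 10-fold doses (10 nM-10 uM or 1 nM-1 uM range). Barcodes were amplified and sequenced, and cell number was interpolated from 293T spike-in standard curves. The result is expressed as % of the median of DMSO wells. Two biological replicates.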

MDA-MB-231 = assay: as above
Protocol: as §1

CC(C)OC(=O)C1=CN(C(=O)c2ccc(F)c(F)c2)CC(C)(C)c2c1[nH]c1ccccc21
relative cell number
Conditions | HCC-38 | MDA-MB-231
sgRNA knockout: sgATF3, 10 nM | 95.5 ± 16 | 95.4 ± 16
sgRNA knockout: sgATF3, 100 nM | 87.2 ± 17 | 110 ± 12
sgRNA knockout: sgATF3, 1000 nM | 97.9 ± 0.32 | 113.1 ± 0.78
sgRNA knockout: sgATF3, 10000 nM | 82.7 ± 4.7 | 70.9 ± 20
sgRNA knockout: sgATF4, 10 nM | 89.4 ± 13 | 104 ± 20
sgRNA knockout: sgATF4, 100 nM | 92.5 ± 0.46 | 112 ± 38
sgRNA knockout: sgATF4, 1000 nM | 95.1 ± 11 | 86.8 ± 26
sgRNA knockout: sgATF4, 10000 nM | 82.6 ± 11 | 105 ± 1.3
sgRNA knockout: sgATF6, 10 nM | 96.8 ± 2 | 72.9 ± 11
sgRNA knockout: sgATF6, 100 nM | 97.2 ± 7 | 65.3 ± 0.66
sgRNA knockout: sgATF6, 1000 nM | 97.9 ± 3.3 | 101 ± 14
sgRNA knockout: sgATF6, 10000 nM | 101 ± 7.2 | 81.8 ± 38
sgRNA knockout: sgATG7, 10 nM | 94.5 ± 9 | 85.8 ± 4.2
sgRNA knockout: sgATG7, 100 nM | 93.5 ± 8.9 | 96.2 ± 7.6
sgRNA knockout: sgATG7, 1000 nM | 97.3 ± 5 | 101 ± 6.5
sgRNA knockout: sgATG7, 10000 nM | 92.22 ± 0.34 | 98.5 ± 0.67
sgRNA knockout: sgERN1, 10 nM | 90.9 ± 5.3 | 99 ± 14
sgRNA knockout: sgERN1, 100 nM | 89.6 ± 8.6 | 94.2 ± 6
sgRNA knockout: sgERN1, 1000 nM | 91.4 ± 4.6 | 89.6 ± 16
sgRNA knockout: sgERN1, 10000 nM | 90.7 ± 5.1 | 89.9 ± 12
sgRNA knockout: sgHSF1, 10 nM | 102 ± 13 | 100 ± 11
sgRNA knockout: sgHSF1, 100 nM | 93.7 ± 1.2 | 74 ± 12
sgRNA knockout: sgHSF1, 1000 nM | 92.32 ± 0.46 | 118 ± 14
sgRNA knockout: sgHSF1, 10000 nM | 105 ± 37 | 105 ± 2.3
sgRNA knockout: sgHSF2, 10 nM | 85.7 ± 5.4 | 95.2 ± 6.7
sgRNA knockout: sgHSF2, 100 nM | 92.17 ± 0.64 | 80.5 ± 37
sgRNA knockout: sgHSF2, 1000 nM | 93.1 ± 2.8 | 87.6 ± 10
sgRNA knockout: sgHSF2, 10000 nM | 97.2 ± 11 | 101 ± 21
sgRNA knockout: sgKEAP1, 10 nM | 100 ± 18 | 110 ± 12
sgRNA knockout: sgKEAP1, 100 nM | 93.3 ± 29 | 106 ± 4.7
sgRNA knockout: sgKEAP1, 1000 nM | 88.8 ± 9.8 | 116 ± 18
sgRNA knockout: sgKEAP1, 10000 nM | 102 ± 23 | 87.9 ± 20
sgRNA knockout: sgNFE2L2, 10 nM | 90.8 ± 22 | 92.7 ± 17
sgRNA knockout: sgNFE2L2, 100 nM | 96.6 ± 13 | 97.1 ± 5.9
sgRNA knockout: sgNFE2L2, 1000 nM | 86.8 ± 10 | 107 ± 1.8
sgRNA knockout: sgNFE2L2, 10000 nM | 87.9 ± 8.7 | 96 ± 12
sgRNA knockout: sgSLC35F2, 10 nM | 99.9 ± 5.5 | 96.7 ± 16
sgRNA knockout: sgSLC35F2, 100 nM | 88.3 ± 13 | 80 ± 8
sgRNA knockout: sgSLC35F2, 1000 nM | 91.4 ± 7.2 | 97.3 ± 33
sgRNA knockout: sgSLC35F2, 10000 nM | 101 ± 11 | 98.4 ± 5.4
sgRNA knockout: sgXBP1, 10 nM | 90.4 ± 9.2 | 103.2 ± 0.39
sgRNA knockout: sgXBP1, 100 nM | 92 ± 1.5 | 92 ± 2.9
sgRNA knockout: sgXBP1, 1000 nM | 99.3 ± 2.1 | 118 ± 15
sgRNA knockout: sgXBP1, 10000 nM | 94.3 ± 12 | 97.5 ± 18

CS(=O)(=O)c1cccc(CNc2nc(Nc3ccc4c(c3)CCC(=O)N4)ncc2C(F)(F)F)c1
relative cell number
Conditions | HCC-38 | MDA-MB-231
sgRNA knockout: sgATF3, 10 nM | 105 ± 32 | 128 ± 7.3
sgRNA knockout: sgATF3, 100 nM | 109 ± 3.9 | 136 ± 14
sgRNA knockout: sgATF3, 1000 nM | 91 ± 19 | 122 ± 19
sgRNA knockout: sgATF3, 10000 nM | 54.11 ± 0.09 | 45 ± 8.3
sgRNA knockout: sgATF4, 10 nM | 102 ± 24 | 143 ± 33
sgRNA knockout: sgATF4, 100 nM | 114 ± 14 | 157.8 ± 0.65
sgRNA knockout: sgATF4, 1000 nM | 89.6 ± 22 | 151 ± 12
sgRNA knockout: sgATF4, 10000 nM | 48.9 ± 5 | 45.8 ± 4.4
sgRNA knockout: sgATF6, 10 nM | 103 ± 25 | 102 ± 3.8
sgRNA knockout: sgATF6, 100 nM | 143.1 ± 0.74 | 126 ± 13
sgRNA knockout: sgATF6, 1000 nM | 114 ± 7.2 | 110 ± 21
sgRNA knockout: sgATF6, 10000 nM | 63.8 ± 7.1 | 45.6 ± 1.7
sgRNA knockout: sgATG7, 10 nM | 105 ± 27 | 115 ± 64
sgRNA knockout: sgATG7, 100 nM | 112 ± 7.5 | 129 ± 12
sgRNA knockout: sgATG7, 1000 nM | 92.7 ± 10 | 98.4 ± 5.5
sgRNA knockout: sgATG7, 10000 nM | 52 ± 0.55 | 37.3 ± 13
sgRNA knockout: sgERN1, 10 nM | 105 ± 30 | 97.8 ± 45
sgRNA knockout: sgERN1, 100 nM | 118 ± 9.3 | 118.2 ± 0.79
sgRNA knockout: sgERN1, 1000 nM | 93.2 ± 7.8 | 105 ± 18
sgRNA knockout: sgERN1, 10000 nM | 48.29 ± 0.054 | 34.9 ± 1.9
sgRNA knockout: sgHSF1, 10 nM | 106 ± 39 | 113 ± 23
sgRNA knockout: sgHSF1, 100 nM | 153 ± 4.2 | 104 ± 29
sgRNA knockout: sgHSF1, 1000 nM | 115 ± 14 | 117 ± 31
sgRNA knockout: sgHSF1, 10000 nM | 57.1 ± 11 | 37.6 ± 6.9
sgRNA knockout: sgHSF2, 10 nM | 114 ± 43 | 131 ± 28
sgRNA knockout: sgHSF2, 100 nM | 127 ± 6.6 | 141 ± 40
sgRNA knockout: sgHSF2, 1000 nM | 96.6 ± 4.8 | 128 ± 31
sgRNA knockout: sgHSF2, 10000 nM | 54.2 ± 1.8 | 40.2 ± 3.8
sgRNA knockout: sgKEAP1, 10 nM | 140 ± 30 | 104 ± 22
sgRNA knockout: sgKEAP1, 100 nM | 152 ± 2.7 | 125 ± 4.8
sgRNA knockout: sgKEAP1, 1000 nM | 123 ± 15 | 91 ± 8
sgRNA knockout: sgKEAP1, 10000 nM | 67 ± 14 | 42.8 ± 4.8
sgRNA knockout: sgNFE2L2, 10 nM | 102 ± 25 | 108 ± 19
sgRNA knockout: sgNFE2L2, 100 nM | 110 ± 15 | 120 ± 15
sgRNA knockout: sgNFE2L2, 1000 nM | 81.9 ± 13 | 129 ± 6.5
sgRNA knockout: sgNFE2L2, 10000 nM | 48.5 ± 0.84 | 47.5 ± 14
sgRNA knockout: sgSLC35F2, 10 nM | 107 ± 36 | 121 ± 19
sgRNA knockout: sgSLC35F2, 100 nM | 108 ± 13 | 126 ± 12
sgRNA knockout: sgSLC35F2, 1000 nM | 87.6 ± 13 | 106 ± 8.8
sgRNA knockout: sgSLC35F2, 10000 nM | 52.4 ± 1.1 | 37.8 ± 3.9
sgRNA knockout: sgXBP1, 10 nM | 104 ± 23 | 116 ± 63
sgRNA knockout: sgXBP1, 100 nM | 114 ± 9.7 | 98.1 ± 3.4
sgRNA knockout: sgXBP1, 1000 nM | 93.9 ± 17 | 106 ± 11
sgRNA knockout: sgXBP1, 10000 nM | 54.6 ± 10 | 44.3 ± 10
